The test has as its system arachidonic acid. As to the kind of experiment: The Mouse Ear Edema Test (arachidonic acid-induced skin edema). It counts as in vivo, mouse (Charles River CD-1, female). The settings on record: 1.0 mg/ear topical, 1 hour before arachidonic acid (0.5 mg). From the text:
The direct application of arachidonic acid to skin, such as the mouse ear, produces an edematous response which is believed to be mediated by eicosanoids resulting from the actions of both cyclooxygenase and lipoxygenase systems. J. M. Young, D. A. Spires, C. J. Bedford, B. Wagner, S. J. Ballaron and L. M. DeYoung, J. Invest. Dermatol. 82:367-371 (1984); E. E. Opas, R. J. Bonney, and J. L. Hanes J. Invest. Dermatol. 84:253-256 (1985). PAF has been reported to cause the release of arachidonic acid, and as a result, gives rise to increased levels of eicosanoids in the exposed tissues. F. H. Chilton, J. T. Flaherty, C. E. Walsh, M. J. Thomas, R. L. Wykle, L. R. DeChatelet and B. M. Waite, J. Biol. Chem., 257:5402-5407 (1982). Thus, the mouse ear edema test can be used to discover substances which antagonize the effects of PAF.
The test drugs were dissolved in 10 μl ethanol and applied to the inner surface of the left ears of Charles River CD-1 female mice. Control values were obtained by applying 10 μl of ethanol to the right ear so that each mouse served as its own control. One hour later, arachidonic acid (0.5 mg/ear in 10 μl ethanol) was applied to both ears and allowed to act on the skin for one hour. […] The extent of edema in each sample was measured by weighing on an analytical balance.

The structures appear in SMILES notation.

On to `COc1ccc2cc([C@H](C)C(=O)O)ccc2c1` [Naproxen, naproxen, reference compound], for which the “% Inhibition of Edema” value is given as 5.8%.

Values taken from patent publication US4973603A, “Platelet activating factor antagonist and methods of use therefor” (priority 1989, dated 1990).
